# About 620 (0.19%) of roughly 320,000 compounds were called active. The shares of active, inactive and inconclusive entries below differ from those in the screen. Rule as the data show it: active = activation above about 80%; inconclusive = between about 30% and that limit; inactive = weaker than that.
# Sequences of proteins named here, by UniProt entry; tags and fusion partners are left off.
# UniProt Q8NER1, whole entry, looked up: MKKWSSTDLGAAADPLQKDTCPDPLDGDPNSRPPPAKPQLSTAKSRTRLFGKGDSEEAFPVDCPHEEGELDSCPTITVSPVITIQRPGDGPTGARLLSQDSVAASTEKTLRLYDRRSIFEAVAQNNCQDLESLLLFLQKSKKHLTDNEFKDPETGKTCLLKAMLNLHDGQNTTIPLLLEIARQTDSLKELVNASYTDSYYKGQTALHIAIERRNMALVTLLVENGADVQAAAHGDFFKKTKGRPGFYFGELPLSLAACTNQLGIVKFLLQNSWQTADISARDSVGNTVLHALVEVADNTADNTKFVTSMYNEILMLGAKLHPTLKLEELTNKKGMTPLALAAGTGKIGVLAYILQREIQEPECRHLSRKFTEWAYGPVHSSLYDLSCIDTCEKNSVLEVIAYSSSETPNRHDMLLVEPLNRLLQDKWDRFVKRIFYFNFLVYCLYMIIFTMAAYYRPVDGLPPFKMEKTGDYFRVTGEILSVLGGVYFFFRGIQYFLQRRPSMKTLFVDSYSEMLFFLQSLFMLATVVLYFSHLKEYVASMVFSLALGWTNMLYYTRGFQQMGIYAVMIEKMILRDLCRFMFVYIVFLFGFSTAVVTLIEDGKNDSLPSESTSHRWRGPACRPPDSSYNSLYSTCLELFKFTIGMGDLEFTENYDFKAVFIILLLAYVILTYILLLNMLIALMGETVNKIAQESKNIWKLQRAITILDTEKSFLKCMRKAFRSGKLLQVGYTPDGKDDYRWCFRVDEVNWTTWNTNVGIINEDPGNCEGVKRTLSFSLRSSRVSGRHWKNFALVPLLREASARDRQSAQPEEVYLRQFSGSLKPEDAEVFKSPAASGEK
# Target: Transient receptor potential cation channel subfamily V member 1 (Homo sapiens) (UniProt Q8NER1)
# Experiment: HTS Assay for Compounds that Act as Agonists of the Vanilloid Receptor 1; also: 0% is about no effect
# Conditions: TRPV1-expressing cells, Fluo-8 calcium influx, agonist mode; at 8.33 µM, active compounds read high
# In short: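 TRPV1-expressing cells were cultured overnight at 35.5C and loaded with Fluo-8 calcium dye for 40 to 90 min at room temperature. After a 10 s baseline, compound was added and calcium influx was read kinetically for 3 min (ex 480/em 520 nm).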
row,SMILES,activation
1,Cc1cc(OCC(=O)NCCCN2CCCC2=O)c2c(C)cc(=O)oc2c1,inconclusive: 52.4%
2,OCC(O)/C=N/Nc1nc(Nc2ccccc2)nc(Nc2ccccc2)n1 (stereo not drawn),inconclusive: 32.9%
3,CCCOc1ccccc1C(=O)Nc1ccc(S(=O)(=O)N2CCN(C)CC2)cc1,inactive: -3.63%
4,CCCCCC(C)NC(=O)CN1C(=O)NC(C)(c2ccc3ccccc3c2)C1=O (stereo not drawn),inactive: 5.39%
5,CCN(C(=O)c1cnc(NC(C)C)cc1C(F)(F)F)c1ccc(Cl)cc1Cl,inconclusive: 48.8%
6,O=C(N/N=C/c1ccccn1)c1ccncc1,inactive: -3.39%
7,Cc1cccc(-c2cc3nc4c(c(NCc5ccco5)n3n2)CCCC4)c1,inconclusive: 45.7%
8,CCOC(=O)C1CCN(C(=O)COc2ccc(Br)cc2)CC1,inconclusive: 36.9%
9,O=C1C(Cl)=C(NCC2CCCO2)C(=O)N1Cc1ccccc1 (stereo not drawn),inconclusive: 54.2%
10,O=C(COc1ccc2ccccc2c1Br)Nc1cccnc1,inactive: 25.8%
11,O=C1N(Cc2cccc(Cl)c2)C[C@@H]2C[C@@H](c3cccn3-c3ccccn3)N3CCC[C@@]123,inactive: -3.67%
12,O=C(NCCNS(=O)(=O)c1ccc(Cl)cc1)c1cc(OCC(F)(F)F)ccc1OCC(F)(F)F,inconclusive: 51.7%
13,O=C(/C=C/c1ccc(Cl)c([N+](=O)[O-])c1)Nc1cccnc1,inconclusive: 75.3%
14,Cc1cccc(OCCCC(=O)Nc2ccc3c(c2)OCO3)c1,inconclusive: 32.2%
15,Cc1cccc(CN2C(=O)/C(=C\c3ccc(C(=O)NCCCN4CCN(C)CC4)cc3)Oc3ccccc32)c1,inactive: -3.3%
16,O=C(CC1CCCC1)Nc1ccc2c(c1)CCC2,inconclusive: 43.2%
17,CC1CCCN(C(=O)c2ccc(Cl)c(S(=O)(=O)N3CCCCCC3)c2)C1 (stereo not drawn),inconclusive: 55.9%
18,O=C(N/N=C/c1nn(-c2ccccc2)cc1-c1ccccc1)c1ccncc1,inconclusive: 51.4%
19,CCc1nc(Nc2cccc(F)c2)c2oc3ccccc3c2n1,inconclusive: 61.8%
20,O=C(CCl)N(CCc1ccccc1)CCc1ccccc1,inconclusive: 58.4%

# A stretch of the results above, as a working copy:
row,SMILES,activation
7,Cc1cccc(-c2cc3nc4c(c(NCc5ccco5)n3n2)CCCC4)c1,inconclusive: 45.7%
8,CCOC(=O)C1CCN(C(=O)COc2ccc(Br)cc2)CC1,inconclusive: 36.9%
9,O=C1C(Cl)=C(NCC2CCCO2)C(=O)N1Cc1ccccc1 (stereo not drawn),inconclusive: 54.2%
10,O=C(COc1ccc2ccccc2c1Br)Nc1cccnc1,inactive: 25.8%

# Carrying on.

row,SMILES,activation
1,COc1ccc(NC(=O)CN(C)C(=O)/C=C/c2cn(-c3ccccc3)nc2-c2cccs2)cc1,inconclusive: 52.5%
2,O=C(NCCC1=CCCCC1)c1cc2ccccc2oc1=O,inconclusive: 43.1%
3,CCN(CC)c1ccc(C=C(c2nnnn2-c2ccccc2)c2nnnn2-c2ccccc2)cc1,inactive: 2.05%
4,C/C(=N\NC(=O)CC#N)c1cc2ccccc2oc1=O,inactive: 4.42%
5,Cc1ccc(CNC(=O)CCCc2nc3ccccc3s2)cc1,inconclusive: 32%
6,CCOc1ncccc1C(=O)Nc1cc(S(=O)(=O)N2CCCCC2)ccc1Cl,inactive: 3.89%
7,O=C(c1ccc(Oc2ccc(C(F)(F)F)cc2[N+](=O)[O-])cc1)N1CCOCC1,inconclusive: 45.8%
8,CC(=O)c1cccc(NC(=O)c2cnn(-c3ccccc3)c2C)c1,inconclusive: 54.4%
9,COc1cccc(OC)c1OCCNC(C)(C)C,inactive: -6.39%
10,CCN(CC)c1ccc(C2C3CCCCC3(O)CCN2C(=O)c2cccs2)cc1 (stereo not drawn),inconclusive: 35.3%
11,COc1cc(Cl)c(C)cc1NC(=O)COc1ccccc1[N+](=O)[O-],inactive: 0.521%
12,CC1CCN(S(=O)(=O)c2ccc(S(=O)(=O)N3CCCC3)cc2)CC1,inactive: -2.79%
13,CCOc1ccc(C(C)NC(=S)NCc2ccc(F)cc2)cc1 (stereo not drawn),active: 86.5%
14,Cc1nn(-c2ccccc2)c(Cl)c1/C=N/NC(=O)c1ccnn1C,inconclusive: 54.4%
15,Cc1cc(Cl)ccc1NC(=O)c1ccc2c(c1)OCO2,inconclusive: 54.3%
16,O=C(COC(=O)Cc1ccsc1)Nc1ccc(Br)cc1,inconclusive: 42.5%
17,CCOc1cc(C(=O)Nc2ccc3c(c2)OCO3)ccc1OC(F)F,inconclusive: 63%
18,CCC(=O)Nc1cccc(NC(=O)c2ccc(C)c([N+](=O)[O-])c2)c1,inactive: 19.2%
19,S=C(NCCCc1ccccc1)Nc1ccc(Br)cc1,inconclusive: 48.6%
20,CCc1ccc2[nH]c(=O)c(CN(Cc3nnnn3C3CCCC3)C3CCCCC3)cc2c1,inconclusive: 32%

row,SMILES,activation
1,COc1ccc(Br)cc1CNC(=O)Nc1cccs1,inconclusive: 40.9%
2,Cc1ccc2c(c1)C1CN(C)CCC1N2C(=O)c1cccc(S(=O)(=O)N(C)C)c1 (stereo not drawn),inactive: -6.72%
3,COC(=O)c1cc2ccccc2oc1=O,inactive: 2.01%
4,CCOC(=O)c1[nH]c(C)c(C(=O)Nc2ccc3c(c2)CCC3)c1C,inconclusive: 56.7%
5,COc1cccc(CNC(=O)C2CCN(S(=O)(=O)c3ccc(F)cc3)CC2)c1,inconclusive: 43.3%
6,CC(C)NC(=O)Nc1cccc(Cl)c1,inconclusive: 31.2%
7,Oc1csc(Cc2nc(-c3ccc(-c4ccccc4)cc3)cs2)n1,inactive: -1.33%
8,CC(C)c1cc(-c2cc(C(=O)NCc3ccccc3)on2)nc(NC2CCCC2)n1,inconclusive: 42.8%
9,CN1/C(=C\C(=O)CSc2nnc(N)s2)C(C)(C)c2ccccc21,inconclusive: 50.6%
10,O=C(Nc1ccc(F)cc1)c1ccc(Br)c(S(=O)(=O)N2CCOCC2)c1,inconclusive: 62.6%
11,O=C(Nc1cn(-c2ccccc2)nc1-c1cccs1)c1ccco1,inconclusive: 51.6%
12,CC(C)CCn1c2ccccc2c2cc(CC(N)=O)ccc21,inconclusive: 52.1%
13,Cc1ccnc(NC(=O)c2ccc(Cl)c(S(=O)(=O)N3CCCCC3)c2)c1,inconclusive: 46.1%
14,Cc1cccc(-c2ocnc2C(=O)Nc2ccccc2C(=O)N2CCCC2)c1,inactive: 3.04%
15,CCOC(=O)/C=c1\s/c(=C\c2ccc3cc(OC)ccc3c2)c(=O)n1CC(=O)NCc1ccc2c(c1)OCO2,inactive: 0.531%
16,COc1cc(SC)ccc1C(=O)Nc1ncc(Cl)cc1Cl,inactive: 4%
17,CC1CCCN(C(=O)COc2ccc3c(c2)OCO3)C1 (stereo not drawn),inconclusive: 34.6%
18,O=C(Nc1cc(F)ccc1F)N1CCN(c2ccnc3cc(Cl)ccc23)CC1,inconclusive: 49.4%

# Reference: PubChem BioAssay AID540275 (National Center for Advancing Translational Sciences (NCATS), 2011)
